These results are taken from publication doi:10.1101/2021.05.23.445325 (bioRxiv, 2021).

Protein sequences, listed by entry. Tags and fused reporters are not part of them. Lines headed by an entry give the natural chain unless they say otherwise; changes in a name come on top. Residues count along the entry.
UniProt Q07955: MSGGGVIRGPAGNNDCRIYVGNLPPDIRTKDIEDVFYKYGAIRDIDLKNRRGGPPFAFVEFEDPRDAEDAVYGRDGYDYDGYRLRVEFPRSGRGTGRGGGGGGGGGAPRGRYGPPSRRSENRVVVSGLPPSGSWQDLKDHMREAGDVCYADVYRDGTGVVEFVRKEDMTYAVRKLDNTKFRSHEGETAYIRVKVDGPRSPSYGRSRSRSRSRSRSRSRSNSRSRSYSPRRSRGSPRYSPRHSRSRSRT
GST-SRSF1 fusion, amino-acids 89-120 (linker between the two RNA recognition motifs): residues 89-120 of Q07955

No constants are given. Whether binding was seen depends on the method and setting. In cells and extracts the contact can be indirect. Some entries that bind do so weakly or less than the wild type. For some assays here: Sequences can lack the tags named with a protein.

Assay [1] addresses T1, FLAG-tagged NXF1 (UniProt Q9UBU9).
T1 sequence: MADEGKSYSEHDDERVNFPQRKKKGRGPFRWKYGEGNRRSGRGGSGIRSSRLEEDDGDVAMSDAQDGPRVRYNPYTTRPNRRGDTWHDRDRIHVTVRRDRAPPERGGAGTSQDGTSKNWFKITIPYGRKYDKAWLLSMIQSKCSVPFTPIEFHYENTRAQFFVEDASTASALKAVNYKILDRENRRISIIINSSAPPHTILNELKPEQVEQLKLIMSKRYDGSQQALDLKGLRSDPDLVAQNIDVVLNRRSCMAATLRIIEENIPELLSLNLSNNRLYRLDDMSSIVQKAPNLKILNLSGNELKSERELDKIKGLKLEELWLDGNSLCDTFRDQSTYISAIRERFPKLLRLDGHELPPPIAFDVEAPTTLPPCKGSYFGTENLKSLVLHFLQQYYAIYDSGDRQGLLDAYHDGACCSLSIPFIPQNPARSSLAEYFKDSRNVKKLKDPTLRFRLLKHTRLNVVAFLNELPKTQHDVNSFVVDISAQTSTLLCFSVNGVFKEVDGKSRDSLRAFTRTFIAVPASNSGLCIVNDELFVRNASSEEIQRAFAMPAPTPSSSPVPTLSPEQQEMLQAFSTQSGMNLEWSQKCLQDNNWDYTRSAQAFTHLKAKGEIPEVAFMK
Nature of the assay: co-IP.

Assay [2] concerns the target T2, GST-NXF1:p15 complex (UniProt Q9UBU9).
T2 sequence 1: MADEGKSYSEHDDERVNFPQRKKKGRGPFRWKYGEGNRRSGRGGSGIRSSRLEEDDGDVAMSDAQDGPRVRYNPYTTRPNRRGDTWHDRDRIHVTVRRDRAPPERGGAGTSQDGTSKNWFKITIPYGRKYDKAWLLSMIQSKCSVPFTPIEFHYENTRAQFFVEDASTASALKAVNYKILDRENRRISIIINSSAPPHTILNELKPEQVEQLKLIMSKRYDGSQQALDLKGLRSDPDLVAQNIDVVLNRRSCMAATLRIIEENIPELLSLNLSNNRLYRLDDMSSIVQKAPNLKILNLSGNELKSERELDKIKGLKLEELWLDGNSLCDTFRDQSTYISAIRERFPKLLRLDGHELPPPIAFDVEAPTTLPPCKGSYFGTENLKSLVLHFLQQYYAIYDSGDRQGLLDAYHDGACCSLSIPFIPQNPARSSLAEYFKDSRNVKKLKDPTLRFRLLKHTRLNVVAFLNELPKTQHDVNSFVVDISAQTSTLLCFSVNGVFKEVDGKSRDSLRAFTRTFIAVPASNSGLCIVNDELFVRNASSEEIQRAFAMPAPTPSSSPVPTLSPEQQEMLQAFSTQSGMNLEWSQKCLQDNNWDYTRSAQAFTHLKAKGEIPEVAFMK
T2 sequence 2: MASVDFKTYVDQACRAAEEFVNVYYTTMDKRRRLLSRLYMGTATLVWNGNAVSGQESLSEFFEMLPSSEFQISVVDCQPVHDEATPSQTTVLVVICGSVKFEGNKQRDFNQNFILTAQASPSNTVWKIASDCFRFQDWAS
Nature of the assay: pull-down.

For assay [3], the target named is GST-SRSF1 fusion, amino-acids 89-120 (linker between the two RNA recognition motifs) (UniProt Q07955). Nature of the assay: pull-down.

Consider “endogenous SRSF1 (from UniProt Q07955 1-248)”, for which the binding entry in assay [1] is “binds”.
Turning to “SRSF1 WT-CPP (SRSF1 aa89-120, V5 tag, TAT protein transduction domain) (from UniProt Q07955 89-120; P04608 47-57) (peptide)”, the binding result in assay [1] and in assay [2] was “binds” throughout.
“full length mammalian SRSF1 synthesized in rabbit reticulocytes (from UniProt Q07955 1-248)”: in assay [2], the binding result was “binds”.

B1: 35S-methionine radiolabeled NXF1 amino-terminal RNA-binding region (aa 1-198) (domain or fragment, UniProt Q9UBU9 1-198)
chain: MADEGKSYSEHDDERVNFPQRKKKGRGPFRWKYGEGNRRSGRGGSGIRSSRLEEDDGDVAMSDAQDGPRVRYNPYTTRPNRRGDTWHDRDRIHVTVRRDRAPPERGGAGTSQDGTSKNWFKITIPYGRKYDKAWLLSMIQSKCSVPFTPIEFHYENTRAQFFVEDASTASALKAVNYKILDRENRRISIIINSSAPPH
modifications: 35S-methionine radiolabel
For B1, the binding entry in assay [3] was “binds”.
